Assay results from PubChem BioAssay AID1487 (National Center for Advancing Translational Sciences (NCATS), 2009).
The other results are listed elsewhere or left out. Shown are side measurements of this screen, not its main read-out; they come without a call. Compounds called inactive in the main read-out are mostly missing here. Words in brackets tell the shape of the fitted curve; partial curves, single points and poor fits give uncertain potencies.

Assay: qHTS Assay for Modulators of Lamin A Splicing
Settings: HeLa LMNA splicing GFP/RFP minigene ratio, 48 h
Procedure, shortened: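 S3 HeLa stable clones carrying a lamin A-EGFP splicing minigene plus DsRed2 were seeded at 600 cells/well in Opti-MEM with 2% FBS, pin-dosed and incubated 48 h at 37°C. Acumen cytometry (488 nm) gave the GFP/RFP total-intensity ratio.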

[1] = measured here: GFP splicing reporter channel
[2] = measured here: RFP viability control channel

SMILES | AC50 [1] | AC50 [2]
O=C(N/N=C/c1cccc(O)c1)c1ccc(COc2ccccc2Br)cc1 | 35.5 µM [falling, single point] | –
Oc1ccc(-c2[nH]ncc2-c2nc3ccccc3s2)c(O)c1 | 35.5 µM [falling, partial curve, poor fit] | –
Cc1nc(SCn2nnc3ccccc3c2=O)nc(C)c1C | 8.91 µM [rising, partial curve, poor fit] | –
O=C(c1ccc(COc2ccc(Br)cc2)o1)N1N=C(C(F)F)CC1(O)C(F)F (stereo not drawn) | – | 22.4 µM [rising, single point]
COC(=O)CCC(=O)OC1(C)C(=O)C=C2C=C(C3CC3)N(C3CC3)C=C2C1=O (stereo not drawn) | 3.55 µM [rising, partial curve, poor fit] | 5.62 µM [rising, partial curve]
Cc1csc(=Nc2c(C)n(C)n(-c3ccccc3)c2=O)n1-c1ccccc1 | 0.00562 µM [rising, full curve, poor fit] | 35.5 µM [rising, single point]
O=C(c1ccc2ccccc2c1)N1CCN(c2ccccc2)CC1 | – | 15.8 µM [rising, single point]
CCCC(=O)NC(c1cccs1)c1cc(Cl)c2cccnc2c1O (stereo not drawn) | 14.1 µM [falling, single point] | –
O=C(NNc1c2ccccc2nc2ccccc12)c1ccccc1O | 35.5 µM [falling, single point] | –
CC(Sc1ccc2c(c1)OCCO2)C(=O)Nc1ccc2c(c1)OCO2 (stereo not drawn) | – | 17.8 µM [rising, single point]
CCOC(=O)C(C)c1nn(C)c(=O)c2ccccc12 (stereo not drawn) | 35.5 µM [rising, single point] | 35.5 µM [rising, single point]
O=C1CSC(c2cn(-c3ccccc3)nc2-c2ccccc2)N1Cc1ccco1 (stereo not drawn) | – | 14.1 µM [rising, single point]
Cc1ccc(C)c(-n2[nH]c3c4c(ccc3c2=O)C(=O)c2ccccc2C4=O)c1 | – | 2 µM [rising, full curve]
OCCCC1CCCN(Cc2cn[nH]c2-c2ccc(F)cc2F)C1 (stereo not drawn) | – | 3.98 µM [falling, partial curve]
COc1ccccc1/C=N/NC(=O)c1ccc(NC(=O)c2cccc([N+](=O)[O-])c2)cc1 | 0.501 µM [rising, full curve, poor fit] | –
Cc1ccc(NC(=O)Cn2c(=O)oc3ccccc32)cc1 | 0.02 µM [rising, full curve, poor fit] | –
C=CCN1C=C2C(=O)C(C)(OC(=O)CCC(=O)OC)C(=O)C=C2C=C1C1CC1 (stereo not drawn) | – | 0.794 µM [rising, full curve, poor fit]
Cc1ccc(/C=N/Nc2ccnc3cc(Cl)ccc23)c(C)c1 | – | 6.31 µM [rising, partial curve, poor fit]
CCOc1cc(/C=C/C(=O)O)ccc1OCc1ccccc1 | 0.447 µM [rising, full curve, poor fit] | 0.02 µM [rising, full curve, poor fit]
Cc1ccccc1N1CCN(C(=S)c2ccc([N+](=O)[O-])cc2)CC1 | 10 µM [rising, partial curve, poor fit] | 14.1 µM [rising, partial curve, poor fit]
COc1ccc(S(=O)(=O)N2c3ccccc3OCC2c2ccccc2)cc1 (stereo not drawn) | 6.31 µM [rising, single point] | 7.08 µM [rising, partial curve]
COc1ccc2c(c1)C(C)=CC(C)(C)N2C(=O)CNCc1ccc2c(c1)OCO2 | – | 0.282 µM [rising, full curve, poor fit]
CCOC(=O)N1CCC(NC(=O)CSCc2nc(-c3cccc(OC)c3)oc2C)CC1 | – | 10 µM [rising, single point]
C[C@H](O)[C@@H]1C(=O)N2C(C(=O)O)=C(SCCN=CN)C[C@@H]12 | 10 µM [falling, single point] | 5.62 µM [falling, single point]
O=C(CCN1CCc2ccccc2C1)c1ccc2c(c1)OCCO2 | – | 12.6 µM [rising, partial curve]
COc1ccccc1N1CCN(c2nc(C)nc3c2oc2ccccc23)CC1 | 1.12 µM [rising, full curve] | 6.31 µM [rising, full curve]
Cc1ccc(OCCn2cc(/C=N/NC(=O)c3ccncc3)c3ccccc32)cc1 | – | 22.4 µM [rising, single point]
Cc1ccc(C2=CSC3=NCCN23)c(C)c1 | 5.62 µM [rising, partial curve] | –

SMILES | AC50 [1] | AC50 [2]
COc1ccc2nc(Nc3sc4c(c3C(N)=O)CCCC4)sc2c1 | – | 0.562 µM [rising, full curve]
Cc1cc(=O)[nH]c(N/N=C/c2cccs2)n1 | 22.4 µM [rising, single point] | 35.5 µM [rising, single point]
CCCn1c(=S)[nH]c2cc(OC)c(OC)cc2c1=O | 0.794 µM [rising, full curve, poor fit] | –
CN1CC(=O)Nc2cc(C(=O)O)ccc21 | 0.158 µM [falling, full curve, poor fit] | –
Nc1cc(C2CCCC2)nn1-c1ccccc1 | – | 25.1 µM [rising, single point]
O=Cc1cc2ccccc2nc1SCc1ccc(Cl)c(Cl)c1 | 4.47 µM [falling, partial curve] | 5.62 µM [falling, single point]
O=C(CSc1nccc(=O)[nH]1)Nc1ccc(Br)c(Cl)c1 | 2.51 µM [rising, full curve, poor fit] | 12.6 µM [rising, partial curve]
CN(C)S(=O)(=O)N(CC(=O)N1CCC(Cc2ccccc2)CC1)c1ccccc1 | 0.0224 µM [rising, full curve, poor fit] | 0.0282 µM [rising, full curve, poor fit]
Cc1nn(-c2cccc(Cl)c2)c2nc(-c3ccncc3)cc(C(=O)N3CCOCC3)c12 | 3.98 µM [falling, full curve] | 4.47 µM [falling, full curve, poor fit]
CC1(C)Cc2c(sc3nc(-c4cccs4)n(N)c(=O)c23)CO1 | 10 µM [rising, partial curve] | 17.8 µM [rising, single point]
COC(=O)c1[nH]c2ccccc2c1NC(=O)CCN1CCSCC1 | 3.16 µM [rising, partial curve, poor fit] | 3.98 µM [rising, full curve, poor fit]
CSc1cccc(NC(=O)CN(C)S(=O)(=O)c2ccc(C)cc2)c1 | – | 35.5 µM [rising, single point]
Fc1ccc(-c2nn(-c3ccc(Cl)cc3)c3c2cnc2ccc(F)cc23)cc1 | – | 0.00282 µM [rising, full curve, poor fit]
COc1ccccc1NC(=O)c1ccccc1NC(=O)c1cc(Cl)ccc1NC(=O)c1ccco1 | 31.6 µM [rising, single point] | –
N#C/C(=C/c1ccncc1)c1nc2ccccc2s1 | – | 35.5 µM [rising, single point]
Cc1ccc(Nc2sc(C(=O)c3ccc(F)cc3)c(N)c2S(=O)(=O)c2ccc(C)cc2)cc1 | 2.51 µM [rising, full curve] | 3.16 µM [rising, full curve]
Cc1ccc(NC(=O)C2CCCN(S(=O)(=O)c3ccc4c(c3)oc(=O)n4C)C2)nc1 (stereo not drawn) | 11.2 µM [rising, partial curve, poor fit] | 12.6 µM [rising, partial curve]
Cn1cnnc1-c1cccc(NC(=O)c2cc(F)c(F)cc2Cl)c1 | – | 1 µM [falling, full curve, poor fit]
O=C(Cc1ccc(Br)cc1)Nc1ccc(Cl)cc1 | 22.4 µM [falling, single point] | 35.5 µM [falling, single point]
COc1ccc(/C=C/c2nc(-c3ccccc3O)n[nH]2)cc1OC | 12.6 µM [rising, single point] | 22.4 µM [rising, partial curve]
COc1ccc(C(=O)Nc2nc(-c3ccc(OC)cc3)c(-c3ccc([N+](=O)[O-])cc3)s2)cc1 | 4.47 µM [rising, single point] | 4.47 µM [rising, single point]
O=C(Nc1cccc(Cl)c1)c1cc(N=Nc2ccc([N+](=O)[O-])cc2Cl)ccc1O | 5.62 µM [rising, single point] | 3.98 µM [rising, full curve]
CCOc1cc(C(=O)N/N=C/C2CC=CCC2)cc(OCC)c1OCC (stereo not drawn) | 35.5 µM [rising, single point] | 20 µM [rising, single point]
CC(=O)C(=Cc1cc(C)n(-c2ccccc2)c1C)C(C)=O | – | 11.2 µM [rising, partial curve]
Cc1ccc(C2(C)NC(=O)N(CC(=O)NCc3cccs3)C2=O)cc1 (stereo not drawn) | 0.01 µM [falling, full curve, poor fit] | –
COc1ccc(CNc2nc(-c3ccoc3)nc3ccccc23)c(OC)c1 | 15.8 µM [falling, partial curve] | –
CS(=O)(=O)Nc1cccc(-c2ccc3ncnc(NCc4cccs4)c3c2)c1 | 20 µM [falling, partial curve] | 20 µM [falling, partial curve]

Looked up above.
AC50 [1] with Cc1ccc(Nc2sc(C(=O)c3ccc(F)cc3)c(N)c2S(=O)(=O)c2ccc(C)cc2)cc1 reads 2.51 µM [rising, full curve]
AC50 [1] with COc1ccccc1/C=N/NC(=O)c1ccc(NC(=O)c2cccc([N+](=O)[O-])c2)cc1 reads 0.501 µM [rising, full curve, poor fit]
